Source: patent US20160031942A1 (LONDON HEALTH SCIENCES CENTRE RESEARCH, published 2016)
No constants are given. Whether binding was seen depends on the method and setting. Tags and fused reporters may be left off the sequences shown.

Molecular target: T1, Recombinant protein RHAMM-CT (truncated RHAMM, carboxy terminus containing the HA binding domain, amino acids 706-766) (Mus musculus (Mouse)) (UniProt Q00547)
T1 sequence: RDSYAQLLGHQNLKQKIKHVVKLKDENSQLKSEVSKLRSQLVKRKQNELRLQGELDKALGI
Test: SPR screening (ProteON XPR36), RHAMM immobilised, peptide injected

binding, no binding (tested: 10 µM):
DSADGEDEGEEY [SEQ ID NO 2 (tubulin-derived peptide containing the DEXEEZ motif)]
IDSYEDEDEGEE [SEQ ID NO 4 (tubulin-derived peptide containing the DEXEEZ motif)]
GEFEEEEGEDEA [SEQ ID NO 10 (tubulin-derived peptide containing the EEXEDZ motif)]
